According to article doi:10.1101/2021.12.08.471779:
Positions count from the first letter of the chain named. Results are given in words; binding and its absence hold for the method and conditions named. In cells and extracts the contact can be indirect. Some entries that bind do so weakly or less than the wild type.

Sequences of proteins named here, by UniProt entry; tags and fusion partners are left off. A change or cut given only in a name is not applied to a line headed by its entry.
UniProt P05825, whole entry, looked up, stated change not applied: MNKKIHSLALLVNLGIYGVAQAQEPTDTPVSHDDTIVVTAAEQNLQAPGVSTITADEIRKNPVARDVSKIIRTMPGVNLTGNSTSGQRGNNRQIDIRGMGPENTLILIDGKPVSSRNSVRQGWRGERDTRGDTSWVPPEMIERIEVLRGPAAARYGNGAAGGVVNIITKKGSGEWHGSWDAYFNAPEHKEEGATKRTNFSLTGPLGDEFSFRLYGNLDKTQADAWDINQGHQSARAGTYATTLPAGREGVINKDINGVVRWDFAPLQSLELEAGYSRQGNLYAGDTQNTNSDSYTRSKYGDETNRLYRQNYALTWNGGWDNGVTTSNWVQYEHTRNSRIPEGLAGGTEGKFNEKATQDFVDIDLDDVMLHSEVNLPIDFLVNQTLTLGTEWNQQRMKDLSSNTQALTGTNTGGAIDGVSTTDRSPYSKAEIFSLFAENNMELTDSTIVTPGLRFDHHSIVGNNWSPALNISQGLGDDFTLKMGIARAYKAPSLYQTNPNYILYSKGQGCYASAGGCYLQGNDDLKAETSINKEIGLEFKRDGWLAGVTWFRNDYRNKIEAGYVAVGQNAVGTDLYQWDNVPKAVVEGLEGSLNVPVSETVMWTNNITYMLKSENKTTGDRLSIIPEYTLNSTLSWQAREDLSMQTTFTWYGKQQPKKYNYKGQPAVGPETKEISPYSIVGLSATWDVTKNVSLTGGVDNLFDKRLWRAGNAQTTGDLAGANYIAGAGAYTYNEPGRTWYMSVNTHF
UniProt P02929, whole entry, looked up, stated change not applied: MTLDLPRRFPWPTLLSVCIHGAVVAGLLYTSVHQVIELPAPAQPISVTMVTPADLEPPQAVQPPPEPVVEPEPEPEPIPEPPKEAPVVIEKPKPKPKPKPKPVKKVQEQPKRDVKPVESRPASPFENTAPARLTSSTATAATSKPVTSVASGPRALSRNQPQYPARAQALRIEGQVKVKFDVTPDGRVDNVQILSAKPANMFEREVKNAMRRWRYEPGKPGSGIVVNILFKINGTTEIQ

Tests used:
Assay in all cases: cross-linking
[1] = target: T1, FepA V15C (Escherichia coli K-12) (UniProt P05825)
T1 sequence: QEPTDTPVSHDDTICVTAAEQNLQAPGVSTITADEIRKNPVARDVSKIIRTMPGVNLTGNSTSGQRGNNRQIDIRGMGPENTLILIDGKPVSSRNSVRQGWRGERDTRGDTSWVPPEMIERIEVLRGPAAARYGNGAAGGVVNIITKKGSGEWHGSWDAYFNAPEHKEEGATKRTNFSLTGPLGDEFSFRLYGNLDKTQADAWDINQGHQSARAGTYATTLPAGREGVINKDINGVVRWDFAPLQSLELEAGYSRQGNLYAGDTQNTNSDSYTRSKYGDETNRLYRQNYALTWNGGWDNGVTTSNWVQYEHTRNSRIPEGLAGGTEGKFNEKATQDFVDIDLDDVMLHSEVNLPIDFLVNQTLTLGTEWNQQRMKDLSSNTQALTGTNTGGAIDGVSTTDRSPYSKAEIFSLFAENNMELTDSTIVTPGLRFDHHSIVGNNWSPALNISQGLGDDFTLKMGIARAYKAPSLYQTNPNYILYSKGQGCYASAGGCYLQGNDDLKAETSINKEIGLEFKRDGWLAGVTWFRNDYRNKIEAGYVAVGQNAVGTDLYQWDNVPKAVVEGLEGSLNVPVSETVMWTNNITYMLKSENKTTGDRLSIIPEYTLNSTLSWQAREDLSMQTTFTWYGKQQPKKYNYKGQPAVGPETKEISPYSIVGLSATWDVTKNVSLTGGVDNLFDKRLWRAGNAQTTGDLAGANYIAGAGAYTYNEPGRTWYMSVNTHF

[2] = target: T2, FepA V16C (Escherichia coli K-12) (UniProt P05825)
T2 sequence: T1 sequence with C15V, V16C

[3] = target: T3, FepA I14C (Escherichia coli K-12) (UniProt P05825)
T3 sequence: T1 sequence with I14C, C15V

Row | binding [1] | binding [2] | binding [3] | Substance
1 | no binding | no binding | no binding | TonB C18G H20A R212C (from UniProt P02929 1-239)
2 | no binding | no binding | no binding | TonB C18G H20A R204C (from UniProt P02929 1-239)
3 | binds | binds | binds | TonB C18G Q160C (from UniProt P02929 1-239)
4 | no binding | no binding | no binding | TonB C18G H20A A209C (from UniProt P02929 1-239)
5 | no binding | no binding | no binding | TonB C18G A209C (from UniProt P02929 1-239)
6 | binds | binds | binds | TonB C18G R212C (from UniProt P02929 1-239)
7 | no binding | no binding | no binding | TonB C18G H20A N208C (from UniProt P02929 1-239)
8 | no binding | no binding | no binding | TonB C18G V206C (from UniProt P02929 1-239)
9 | binds | binds | binds | TonB C18G N208C (from UniProt P02929 1-239)
10 | no binding | no binding | no binding | TonB C18G H20A V206C (from UniProt P02929 1-239)
11 | binds | binds | binds | TonB C18G R204C (from UniProt P02929 1-239)
12 | binds | binds | binds | TonB C18G H20A Q160C (from UniProt P02929 1-239)
